Measured values published in PubChem BioAssay AID651640 (Broad Institute, 2012).
The whole screen tested about 350,000 compounds, of which about 6,000 (1.7%) were called active. The shares of active, inactive and inconclusive entries below differ from those in the screen. Cut-off read from the data, not from the text of the source: active = CPE inhibition above about 20% (passing the limit was not always enough); inconclusive = no clear call, values can overlap the other calls; tested in BHK-21 cells. More than one record can exist for a structure, and the calls need not agree.

Test: protection of cells from dengue 2 killing – plate reader, single concentration, primary screen (AID 651640);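 note: 0% = median of neutral control wells and 100% = median of positive control wells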
Settings: DENV2-infected cells, cytopathic effect rescue, at 9.99 µM, active compounds read high

Structure (SMILES)	CPE inhibition
COc1ccccc1N1CCN(Cc2ccccc2)CC1	inconclusive: 25%
O=[N+]([O-])c1ccc(N2CCCNCC2)c2ncccc12	inconclusive: 43.3%
Cc1c(P(=S)(c2ccccc2)c2ccccc2)[n+]2ccccc2n1C	active: 73%
COc1ccc(-n2c(C)nc3ccccc3c2=O)c([N+](=O)[O-])c1	inactive: -3.3%
O=P(O)(Oc1ccccc1)c1ccccc1	inconclusive: 22.7%
COc1cc(C(=O)N2Cc3ccc(Br)cc3-n3nncc3C2)cc(OC)c1OC	inconclusive: 21.7%
COC(=O)C1=C(c2ccc(F)cc2OCc2ccccc2)C[C@@H]2CC[C@H]1N2C(=O)NCc1ccc(N(C)C)cc1	inactive: 14.6%
Clc1cc(Cl)c(-c2cc(Cl)c(Cl)cc2Cl)cc1Cl	active: 23.1%
CCOC(=O)[C@]12Cc3cc(C)ccc3[C@H]1N(C1CCCCC1)C(=O)c1cc(OC)ccc12	inconclusive: 79.3%
CN1CC(C(=O)c2ccccc2)C(c2ccccc2)C1 (centres undefined)	inconclusive: 24.4%
Cc1ccc(O)c(C(=O)c2cc(C(=O)NCc3ccccc3)c(=O)n(Cc3ccccc3)c2)c1	inconclusive: 55.7%
O=C(O)Cc1cnc[nH]1	inactive: -2.37%
Cc1onc(-c2c(Cl)cccc2Cl)c1/C(N)=N/OC(=O)N(C)C	inconclusive: 25.8%
COC(=O)C1=C(c2ccc(C(C)=O)cc2)C[C@@H]2CC[C@H]1N2C(=O)N1CCC(C)CC1	inconclusive: 24.2%
CC(C)(C)C(=O)OC[N+](C)(C)CCOC(=O)C(O)(c1ccccc1)C1CCCC1 (centres undefined)	inactive: -8.18%
Cc1ccc(N)c(C)c1	active: 82.3%
O=C(CCc1ccccc1)N1Cc2cc(-c3cccc(F)c3)ccc2-n2nncc2C1	inconclusive: 22.5%
CN(C)[C@@H]1C(=O)C(C(N)=O)=C(O)[C@@]2(O)C(=O)C3=C(O)c4c(O)cccc4[C@@](C)(O)[C@H]3[C@H](O)[C@@H]12	inactive: -1.78%
C/C(=N\N1CCCCCC1)c1c(O)n(C2CCCCC2)c(=O)[nH]c1=O	inactive: 1.14%
CC(=O)NCC1=C(c2ccc3ccccc3c2)C[C@@H]2CC[C@H]1N2Cc1ccco1	inactive: -2.04%
CCOc1c(Cl)cc(CNCCc2c[nH]c3ccccc23)cc1OC	inconclusive: 27.2%

Structure (SMILES)	CPE inhibition
NC1CC2CCCCC2CC1(O)c1ccccc1 (centres undefined)	inconclusive: 41.1%
O=C1NC(=O)N(Cc2ccccc2)C(=O)/C1=C\C=C\c1ccco1	inactive: -2.91%
COc1cccc(CC(=O)N(C)C2CCCN(Cc3ccccc3F)C2)c1 (centres undefined)	inconclusive: 37%
Brc1ccc2c(c1)-n1nncc1CNC2	inconclusive: 67.7%
Cc1cccc(S(=O)(=O)N2[C@@H]3Cn4c(ccc(-c5ccncc5)c4=O)[C@H]2[C@@H](C(=O)O)[C@@H]3CO)c1	inconclusive: 30.4%
O=C(CCCN1CCC(n2c(=O)[nH]c3ccccc32)CC1)c1ccc(F)cc1	inconclusive: 30.5%
COc1cccc(C(c2nnnn2-c2ccc3c(c2)OCCO3)N2CCC3(CC2)C(=O)NCN3c2ccccc2)c1OC (centres undefined)	inconclusive: 34.6%
COc1cc2c(cc1OC)C13CCN4CC5=CCOC6CC(=O)N2C1C6C5C3C4 (centres undefined) (tested in a mixture with another compound)	inconclusive: 20.8%
CN1c2ccc(Br)cc2[C@@H]2NCC[C@@H]2[C@@H]1CO	inconclusive: 53.2%
COC(=O)[C@H]1C[C@@H]1[C@H](NP(=O)(c1ccccc1)c1ccccc1)c1ccccc1	inconclusive: 54.7%
O=C(O)c1ccc(N=Cc2c(O)[nH]c(=O)[nH]c2=O)cc1	inconclusive: 23.7%
NC(Cc1ccccc1)c1nn[nH]n1 (centres undefined)	inconclusive: 22.8%
COC(=O)C1=C(c2ccc(F)cc2OCc2ccccc2)C[C@@H]2CC[C@H]1N2C(=O)NCc1ccc([N+](=O)[O-])cc1	inconclusive: 74.7%
COc1cc2oc(=O)c(CC(=O)N3C[C@H]4C[C@@H](C3)c3cccc(=O)n3C4)c(C)c2cc1Cl	inconclusive: 49%
OC1/C(=C/c2ccccc2F)N2CCC1CC2 (centres undefined)	inconclusive: 31.8%
Cc1cc(OCC(=O)N2CCCN(C)CC2)ccc1Cl	inconclusive: 20.2%
CCCCOC(=O)c1ccccc1N	inactive: 5.65%
Nc1ccccc1C(=O)OCCc1ccccc1	active: 77.8%
C=C(C)CC1(CC)C(=O)NC(=S)NC1=O	inactive: -4%
CC12CCC(O)CC1CCC1C2CCC2(C)C(C(=O)CO)CCC12 (centres undefined)	inconclusive: 21%
COC1=CC(=O)OC(CCc2ccc3c(c2)OCO3)C1 (centres undefined)	inconclusive: 50.1%

Structure (SMILES)	CPE inhibition
O=C(Cc1ccccn1)N1CCCCN2[C@H](C1)[C@H](c1ccc(-c3ccccc3)cc1)[C@@H]2CO	active: 43%
Cc1ccc2c(c1)=C/C(=C\c1c(O)[nH]c(=O)[nH]c1=O)C(=O)N=2	inconclusive: 52.9%
N[C@@H](Cc1ccccc1)C(=O)N1C[C@H]2C[C@@H](C1)c1cccc(=O)n1C2	inconclusive: 54.3%
CN1[C@@H]2CC[C@H]1CC(OC(=O)C1C=Nc3ccccc31)C2 (some centres undefined)	inconclusive: 31.3%
CN(C)C1CCc2[nH]c3c(F)cc(F)cc3c2C1 (centres undefined)	inconclusive: 34.7%
C/C=C/c1ccc([C@@H]2[C@@H](CO)N3CCCCN(C(=O)Cc4ccncc4)C[C@@H]23)cc1	inconclusive: 24.5%
COC(=O)C1=C(c2cccc3c2S(=O)(=O)c2ccccc2-3)C[C@@H]2CC[C@H]1N2C(=O)N1CCOCC1	inconclusive: 23.5%
COc1ccc(-c2ccc3c(c2)CN(C(=S)NCCc2ccccc2)Cc2cnnn2-3)cc1	inconclusive: 57.6%
COc1ccc(-c2ccc3c(c2)CN(C(=O)NC2CCCCC2)Cc2cnnn2-3)cc1	active: 24.3%
COc1ccc(CCn2c(O)c(/C=N/NC(=O)c3ccncc3)c(=O)[nH]c2=O)cc1OC	inactive: 1.04%
O=C1CC2OCC=C3CN4CCC56c7cc([N+](=O)[O-])ccc7N1C5C2C3CC46 (centres undefined)	inactive: -0.312%
NC1CCc2cc(O)c(O)cc2C1 (centres undefined)	inconclusive: 55.4%
CCOC(=O)CNC(=O)N1Cc2cc(-c3ccccc3)ccc2-n2nncc2C1	inconclusive: 57.7%
O=C(Cc1ccccc1)N1CCCCN2[C@@H](CO)[C@H](c3ccc(-c4ccccc4)cc3)[C@@H]2C1	inactive: 4.08%
COc1cc2c(cc1O)CC1c3c(cc(O)c(OC)c3-2)CCN1C (centres undefined)	inconclusive: 26.9%
OC(CN1CCOCC1)c1csc2ccccc12 (centres undefined)	inconclusive: 40.6%
COC(=O)C1=C(c2cc3ccccc3o2)C[C@@H]2CC[C@H]1N2C(=O)N1CCOCC1	inconclusive: 52.3%
O=C(C(=O)N1CCC2(CC1)OCCO2)c1c[nH]c2ccccc12	inconclusive: 34.8%
CCC(C)N1C(=O)/C(=C\c2cc3c4c(c2)CCCN4CCC3)C(=O)NC1=S (centres undefined)	inconclusive: 26.9%
COC(=O)C1=C(c2ccc(OCc3ccccc3)cc2)C[C@@H]2CC[C@H]1N2C(=O)NCc1ccc2c(c1)OCO2	inconclusive: 22.3%
O=C(Cc1c(-c2ccccc2)nc2ccc(Br)cn12)N1CCCC1	inactive: 10.5%

Already shown: entries from further up.
Structure (SMILES)	CPE inhibition
NC1CCc2cc(O)c(O)cc2C1 (centres undefined)	inconclusive: 55.4%
CCOC(=O)CNC(=O)N1Cc2cc(-c3ccccc3)ccc2-n2nncc2C1	inconclusive: 57.7%

Among those listed so far, three have a COOH group.
Structure (SMILES)	CPE inhibition
O=C(O)Cc1cnc[nH]1	inactive: -2.37%
Cc1cccc(S(=O)(=O)N2[C@@H]3Cn4c(ccc(-c5ccncc5)c4=O)[C@H]2[C@@H](C(=O)O)[C@@H]3CO)c1	inconclusive: 30.4%
O=C(O)c1ccc(N=Cc2c(O)[nH]c(=O)[nH]c2=O)cc1	inconclusive: 23.7%

Further compounds

Structure (SMILES)	CPE inhibition
COC(=O)C1=C(c2cccc(C#N)c2)C[C@@H]2CC[C@H]1N2C(=O)NCCNC(C)=O	inconclusive: 79.6%
O=C1CNC[C@H]2[C@@H](c3ccc(Br)cc3)[C@@H](CO)N12	inactive: -10.6%
NC(=O)c1ccsc1NC(=O)COC(=O)Cc1ccccc1	inconclusive: 43.1%
CS(=O)(=O)c1ccc(C2=C(CNC(=O)c3nccs3)[C@H]3CC[C@@H](C2)N3CCOc2ccccc2)cc1	inactive: -0.413%
Cc1ccc(CN2Cc3ccc(Br)cc3-n3nncc3C2)cc1	inconclusive: 21.7%
CCC1CN1P(=O)(c1ccccc1)N1CC1CC (centres undefined)	inactive: -4%
C[C@]12CCC3C(CC[C@H]4C[C@@H](O)CC[C@]34C)C1C[C@@H](N)[C@@H]2O (some centres undefined)	inactive: 1.47%
COC(=O)[C@@H]1[C@@H](CO)[C@@H]2Cn3c(ccc(C4=CCCC4)c3=O)[C@H]1N2Cc1ccccn1	active: 118%
COc1ccc(CN2C(=O)NC(=O)/C(=C/c3ccoc3)C2=O)cc1	inactive: -0.551%
CN1CCN(c2ccc(S(=O)(=O)C(F)(F)F)cc2[N+](=O)[O-])CC1	inactive: -10.7%
CC1CCCC(NC(=O)COC(=O)c2cn(C)c3ccccc23)C1C (centres undefined)	inconclusive: 25.5%
COc1ccc(C#Cc2ccc([C@@H]3[C@@H](CO)N4CCCCN(C(=O)Cc5ccncc5)C[C@@H]34)cc2)cc1	active: 35.9%
O=C1NC(=O)C(=Cc2ccc(OCC(=O)N3CCOCC3)cc2)C(=O)N1	active: 63.7%
CC(=NCC1CCCO1)c1c(O)n(-c2ccccc2C)c(=O)[nH]c1=O (centres undefined)	inconclusive: 24%
COc1ccc(CCNC2CCCCC2)cc1	inactive: -3.9%
CC(C)(C)NC(=S)N1Cc2ccccc2-n2nncc2C1	inconclusive: 32%
O=C1CN=C(c2ccccc2)c2ccccc2N1	inconclusive: 20.7%
CC(C)(C)n1nnnc1C(CCc1ccccc1)N1CCC(n2c(=O)[nH]c3ccccc32)CC1 (centres undefined)	inconclusive: 20.6%
O=C(Cc1ccccn1)N1CCCCN2[C@H](CO)[C@H](c3ccc(C#Cc4ccccc4)cc3)[C@H]2C1	inactive: 2.77%
NCCc1ccccc1	active: 43.2%
CN(C)CC#Cc1ccc([C@H]2[C@@H](CO)N3CCCCN(C(=O)Cc4ccccn4)C[C@H]23)cc1	active: 30.4%
